Reference: US20180200257A1, “METHODS FOR THE TREATMENT OF INFLAMMATORY DISORDERS” (Galapagos NV, priority 2015, published 2018)
Further values from the same series stand in other lists.

Tested on: subjects with moderately to severely active RA who have an inadequate response to methotrexate (MTX)
Experiment: Study 1 (add-on to MTX) - ACR responses (ACR20/50/70)
Type: in vivo, human
Text: The terms “ACR20”, “ACR50” and “ACR70” as used herein are scores which indicate how much a patient's rheumatoid arthritis has improved according to criteria set out by the American College of Rheumatology (ACR). The ACR score represents a percentage. An ACR20 score means that a person's RA has improved by 20%, an ACR50 score means it has improved by 50%, and an ACR70 score means it has improved by 70%. Specifically, to qualify for an ACR20 score, a person with RA must have at least 20% fewer tender joints and at least 20% fewer swollen joints. In addition the patient must show a 20% improvement in at least three of the following five areas: the person's overall (global) assessment of his or her own RA, the physician's global assessment of the person's RA, the person's assessment of his or her own pain, the person's assessment of his or her own physical functioning, and the results of an erythrocyte sedimentation rate or C-reactive protein (CRP) blood test (both of which test for inflammation). ACR50 and ACR70 scores use the same criteria but require 50% and 70% improvement, respectively, (Felson et al., 1993). In the data presented herein the CRP blood test is used.
Double-blind, placebo-controlled add on study in subjects with moderately to severely active RA who have an inadequate response to methotrexate (MTX) (oral or parenteral).
595 subjects randomized to one of 6 dose regimens of Compound 1 (dosed as [Compound 1:HCl:3H2O]) (3 dose levels administered either once or twice daily) or placebo on top of each subject's stable dose of MTX.
Compound 1 (dosed as [Compound 1:HCl:3H2O]) is dosed for twelve weeks once daily (q.d.) (50 mg, 100 mg or 200 mg) or twice daily (b.i.d.) (25 mg, 50 mg or 100 mg); or placebo.
At Week 12, the subjects on placebo who have not achieved 20% improvement in swollen joint count (SJC66) and tender joint count (TJC68) are re-randomized automatically to receive Compound 1 (dosed as a [Compound 1:HCl:3H2O]) either at 100 mg q.d. or 50 mg b.i.d. doses in a blinded fashion; subjects on 50 mg q.d. who have not achieved 20% improvement in SJC66 and TJC68 will be assigned to 100 mg q.d. and subjects on 25 mg b.i.d. that have not achieved a 20% improvement in SJC66 and TJC68 will be assigned to 50 mg b.i.d. Subjects who switch treatment at week 12 are handled as if they discontinued at week 12 for the purpose of statistical analysis, whereas subjects in the other groups will maintain their randomized treatment until Week 24.
The American College of Rheumatology (ACR) composite score, which evaluates clinical improvement relative to an initial assessment, is a commonly accepted efficacy end point for clinical trials in patients with rheumatoid arthritis. The ACR score correspond to a percentage improvement in pre-set parameters, and therefore measures the evolution of the disease in a patient. For example, ACR20 denotes at least 20% improvement in tender and swollen joint counts and in three of the following end points: global assessment by the patient, global assessment by the doctor, C reactive protein (CRP), patient's pain Visual Analogue Scale and Health Assessment Questionnaire Score. The number of swollen joints, ESR and CRP correlate with radiographic progression of joint damage, whereas tender joint counts, as well as global assessments by doctors and patients, and patients' reports of pain, are sensitive to change in clinical outcomes. Physical function, as assessed by the Health Assessment Questionnaire Score, is a potent predictor of the risk of disability in rheumatoid arthritis (Felson and American College of Rheumatology Committee to Reevaluate Improvement Criteria, 2007; Felson et al., 1993).
In particular, the list of parameters used to assess ACR score can be found in the Table XCVI below and the results of the ACR responses at week 12 via either NRI or LOCF are shown in the tables below. The Hommel-corrected p-value for the pairwise comparisons of each group with placebo is shown. […]

[1] = 50 mg q.d., week 20, 24 weeks results
[2] = 50 mg q.d., week 24, 24 weeks results
[3] = 100 mg q.d., week 16, 24 weeks results
[4] = 100 mg q.d., week 20, 24 weeks results
[5] = 100 mg q.d., week 24, 24 weeks results
[6] = 200 mg q.d., week 16, 24 weeks results
[7] = 200 mg q.d., week 20, 24 weeks results
[8] = 200 mg q.d., week 24, 24 weeks results
[9] = 2 × 25 mg b.i.d., week 16, 24 weeks results
[10] = 2 × 25 mg b.i.d., week 20, 24 weeks results
[11] = 2 × 25 mg b.i.d., week 24, 24 weeks results
[12] = 2 × 50 mg b.i.d., week 16, 24 weeks results
[13] = 2 × 50 mg b.i.d., week 20, 24 weeks results
[14] = 2 × 50 mg b.i.d., week 24, 24 weeks results
[15] = 2 × 100 mg b.i.d., week 16, 24 weeks results
[16] = 2 × 100 mg b.i.d., week 20, 24 weeks results
[17] = 2 × 100 mg b.i.d., week 24, 24 weeks results

## O=C(Nc1nc2cccc(-c3ccc(CN4CCS(=O)(=O)CC4)cc3)n2n1)C1CC1 [Compound 1, cyclopropanecarboxylic acid {5-[4-(1,1-dioxo-thiomorpholin-4-ylmethyl)-phenyl]-[1,2,4]triazolo[1,5-a]pyridin-2-yl}-amide]
[1]
  ACR50 (NRI): 39.0%
  ACR70 (NRI): 23.2%
[2]
  ACR50 (NRI): 35.4%
  ACR70 (NRI): 22.0%
[3]
  ACR50 (NRI): 52.9%
  ACR70 (NRI): 24.7%
[4]
  ACR50 (NRI): 45.9%
  ACR70 (NRI): 30.6%
[5]
  ACR50 (NRI): 45.9%
  ACR70 (NRI): 32.9%
[6]
  ACR50 (NRI): 48.8%
  ACR70 (NRI): 26.7%
[7]
  ACR50 (NRI): 52.3%
  ACR70 (NRI): 23.3%
[8]
  ACR50 (NRI): 50.0%
  ACR70 (NRI): 29.1%
[9]
  ACR50 (NRI): 30.2%
  ACR70 (NRI): 10.5%
[10]
  ACR50 (NRI): 38.4%
  ACR70 (NRI): 10.5%
[11]
  ACR50 (NRI): 34.9%
  ACR70 (NRI): 20.9%
[12]
  ACR50 (NRI): 31.8%
  ACR70 (NRI): 21.2%
[13]
  ACR50 (NRI): 41.2%
  ACR70 (NRI): 22.4%
[14]
  ACR50 (NRI): 35.3%
  ACR70 (NRI): 23.5%
[15]
  ACR50 (NRI): 61.9%
  ACR70 (NRI): 36.9%
[16]
  ACR50 (NRI): 58.3%
  ACR70 (NRI): 36.9%
[17]
  ACR50 (NRI): 54.8%
  ACR70 (NRI): 39.3%
